Reference: PubChem BioAssay AID504834 (National Center for Advancing Translational Sciences (NCATS), 2011)
Hit rate of the full screen: of about 320,000 compounds, about 22,000 (6.9%) were called active. The shares of active, inactive and inconclusive entries below differ from those in the screen. Calls follow the shape of the dose curve; as a rule, active = well fitted inhibition curve with a large enough effect; inconclusive = small, poorly fitted or top-dose-only effect, or another doubt; inactive = no such curve, though single readings can be large or run the other way. Where the call is inconclusive, the potency comes from a doubtful curve fit.

Experiment: Primary qHTS for delayed death inhibitors of the malarial parasite plastid, 96 hour incubation
Settings: P. falciparum luciferase reporter growth; series mostly up to 28.7 µM; activity change, negative = inhibition: at the top concentration
Outline: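 96 h incubation, 37 C, 5% CO2, of luciferase-reporter P. falciparum-infected RBCs (2% hematocrit, 0.05% parasitemia final) with test compounds; endpoint luminescence.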
% is scaled to controls: 0 for no effect and ±100 for the full control effect; potency is read from the fitted curve at half-maximal effect.

| Structure (SMILES) | Potency | activity change, negative = inhibition |
| --- | --- | --- |
| COc1cccc(C(=O)NCC2CCCN(C(=O)c3ccc(C=O)cc3)C2)c1OC (stereo unspecified) | inconclusive: 10.4 µM [inhibitor, single point] |  |
| Cc1ccc2c(=O)cc(C(=O)NC3CCS(=O)(=O)C3)oc2c1C (stereo unspecified) | inconclusive: 9.28 µM [inhibitor, partial curve] |  |
| O=C(N/N=C/c1ccccc1OCC(=O)N1CCCC1)C(=O)Nc1ccccc1F |  | inactive: 47.8% |
| CCOC(=O)N1CCC(NC(=O)CCc2cn(C)c3ccccc23)CC1 | inconclusive: 0.0738 µM [inhibitor, full curve, poor fit] |  |
| Cc1cccc(C2NC(c3cccc(C)c3)C([N+](=O)[O-])C(C)(C)C2[N+](=O)[O-])c1 (stereo unspecified) | inconclusive: 18.5 µM [inhibitor, single point] |  |
| COc1cc(NC(=O)COC(=O)CO/N=C(\C)c2ccc3c(c2)OCO3)cc(OC)c1OC |  | inactive: 40.1% |
| COc1ccc(CCNC(=S)c2ccccc2)cc1OC | active: 5.22 µM |  |
| CS(=O)(=O)c1ccc(C(=O)OCC(=O)NNC(=O)COc2ccc(Cl)cc2)cc1 |  | inactive: -3.01% |
| CCc1cccc(C)c1NC(=O)c1ccc(CN2CCc3ccccc3C2)cc1 | active: 1.47 µM |  |
| CN(C)c1ccc(NC(=O)c2ccc3nc[nH]c3c2)cc1 |  | inactive: 130% |
| O=C(Cc1ccccc1)Nc1nonc1NC(=O)c1ccccc1 | inconclusive: 11.7 µM [inhibitor, partial curve] |  |
| CN(C)c1ccc(/C=[N+](\[O-])C2N(c3ccccc3)C(=S)SC2(C)C)cc1 (stereo unspecified) | inconclusive: 18.5 µM [inhibitor, single point] |  |
| Cc1ccnc(N/C=C(/NC(=O)c2ccccc2)C(=O)N/N=C\c2ccc(F)cc2)n1 |  | inactive: 3.81% |
| CS(=O)(=O)n1nc(C(=O)N2CCOCC2)nc1N |  | inactive: 26.1% |
| COc1ccc(CCNC(=O)c2cc3c(C)nccc3[nH]c2=O)cc1OC | inconclusive: 4.15 µM [inhibitor, single point] |  |
| CCOC(=O)c1c(NC(=O)CSc2ncnc3ccccc23)sc(C)c1C | inconclusive: 0.415 µM [inhibitor, full curve, poor fit] |  |
| Cc1ccc(-n2c(N)c(C(N)=O)sc2=S)c(C)c1 | active: 14.7 µM |  |
| CC(C)CC(=O)NC(=S)NNC(=O)c1ccc([N+](=O)[O-])cc1 | inconclusive: 18.5 µM [inhibitor, single point] |  |
| COc1ccc(S(=O)(=O)NCC2CCCN(C(=O)CCC(F)(F)F)C2)cc1 (stereo unspecified) |  | inactive: 119% |
| O=C(Nc1cccc(C(=O)O)c1)Nc1ccc2c(c1)OCO2 |  | inactive: -26.2% |
| CC1=Nc2ccccc2N=C(NC(=O)CN2CCN(c3ccc(F)cc3)CC2)C1c1ccccc1 (stereo unspecified) | inconclusive: 5.22 µM [inhibitor, partial curve] |  |
| COc1ccc(C(=O)C(c2ccccc2)N2CCOCC2)cc1 (stereo unspecified) | inconclusive: 11.7 µM [inhibitor, single point] |  |
| CCCCn1c(O)c(C(C)=NCCc2ccccc2)c(=O)[nH]c1=O | inconclusive: 4.15 µM [inhibitor, partial curve, poor fit] |  |
| O=C(c1ccc([N+](=O)[O-])cc1)N1CCN(c2cccc3[nH]ccc23)CC1 | inconclusive: 3.29 µM [inhibitor, partial curve, poor fit] |  |

| Structure (SMILES) | Potency | activity change, negative = inhibition |
| --- | --- | --- |
| COc1ccc(CNC(=O)CN(c2ccc(C)cc2)S(=O)(=O)c2c(C)noc2C)cc1 |  | inactive: 68.6% |
| C=C(C)CN(CC)C(=O)CSc1ccc(S(=O)(=O)N2CCN(Cc3ccccc3)CC2)cn1 | active: 8.28 µM |  |
| Cc1ccccc1CSCC(=O)NC(=O)NC(C)(C)C | active: 10.4 µM |  |
| Cc1cccc(CNC(=O)c2ccc3nc(Cc4ccccc4F)oc3c2)n1 |  | inactive: -1.62% |
| COc1cccc(N2CCN(C(=S)Nc3ccccc3OC)CC2)c1 | active: 9.28 µM |  |
| C/C=C/Cn1c(N2CCCCCC2)nc2c1c(=O)[nH]c(=O)n2C | inconclusive: 18.5 µM [inhibitor, single point] |  |
| FC(F)(F)c1cccc(-c2cc3ccccc3nc2N2CCCC2)c1 | inconclusive: 18.5 µM [inhibitor, single point] |  |
| CC(=O)N1CCC(=NNc2nc3ccccc3s2)CC1 |  | inactive: 15.9% |
| CC(C)(C)C(=O)NC1=NCCS1 | active: 1.47 µM |  |
| Cc1c(-c2ccccc2)[nH]n2c(=O)c3c(nc12)CCCC3 | inconclusive: 0.165 µM [inhibitor, full curve, poor fit] |  |
| COCCNC(=O)/C(C#N)=C\c1ccc(CNC(=O)C(=O)Nc2ccc(C)c(C)c2)o1 | inconclusive: 2.08 µM [inhibitor, partial curve, poor fit] |  |
| COC(=O)c1cc(S(=O)(=O)N2CCC(C(N)=O)CC2)oc1C |  | inactive: 5.4% |
| CSc1nccc(-c2c(-c3ccc(Cl)cc3)noc2C)n1 | inconclusive: 13.1 µM [inhibitor, single point] |  |
| CCN(CC)c1cc(C)c2cc(NC(=O)c3cccs3)ccc2n1 | inconclusive: 0.262 µM [inhibitor, partial curve, poor fit] |  |
| CN1CCN(c2nc(-c3ccccc3)nc3c2oc2ccccc23)CC1 | active: 5.86 µM |  |
| COc1cc(CNC2CCCCCCC2)ccc1OCC(N)=O | inconclusive: 10.4 µM [inhibitor, single point] |  |
| COC(=O)c1ccccc1NC(=O)COC(=O)/C=C/c1ccco1 |  | inactive: 27% |
| O=C(CSc1nnc(-c2ccccc2)c2ccccc12)NCC1CCCO1 (stereo unspecified) | inconclusive: 18.5 µM [inhibitor, single point] |  |
| COc1ccccc1NC(=S)NNC(=O)c1nn(C)cc1Cl | active: 6.57 µM |  |
| COc1ccc(C(Nc2ccccn2)c2c(NC(=O)c3ccco3)sc(C)c2C)cc1OC (stereo unspecified) | active: 5.22 µM |  |
| COc1ccc(C)cc1NC(=O)COC(C)=O |  | inactive: 6.44% |
| CCn1c(=O)n(CC)c2cc(N3CCCC3)c(NC(=O)c3ccc(F)cc3)cc21 |  | inactive: 31.4% |
| Cc1cccc(N(C(=O)Nc2ccccc2)C2=NCC(C)S2)c1 (stereo unspecified) | inconclusive: 18.5 µM [inhibitor, single point] |  |

| Structure (SMILES) | Potency | activity change, negative = inhibition |
| --- | --- | --- |
| Clc1ccc(Nc2nc(NCCN3CCOCC3)nc(N3CCOCC3)n2)cc1 | inconclusive: 13.1 µM [inhibitor, single point] |  |
| Clc1cccc(CN2CCc3c([nH]c4ccccc34)C2)c1 | inconclusive: 18.5 µM [inhibitor, single point] |  |
| Nc1cc(C(=O)Nc2ccc(Cl)cc2)ccc1N1CC2CC(C1)c1cccc(=O)n1C2 (stereo unspecified) | inconclusive: 14.7 µM [inhibitor, single point] |  |
| CCNC(=S)N(Cc1cccs1)Cc1cc2cc(OCC)ccc2[nH]c1=O | inconclusive: 1.85 µM [inhibitor, partial curve] |  |
| Cc1noc(C)c1COC(=O)c1ccc2c(c1)OCO2 | active: 7.38 µM |  |
| Cc1ccccc1NS(=O)(=O)c1cc(C(=O)NCCC2=CCCCC2)ccc1Cl | inconclusive: 18.5 µM [inhibitor, single point] |  |
| Cc1ccc(CN2CC(C(=O)N3CCN(c4ccccc4O)CC3)CC2=O)cc1 (stereo unspecified) | inconclusive: 18.5 µM [inhibitor, single point] |  |
| Cc1ccc(C(=O)NC(=S)Nc2ccccc2C(F)(F)F)c(C)c1 | inconclusive: 0.0657 µM [inhibitor, full curve, poor fit] |  |
| Cc1ccccc1CC1(CO)CCCN(C(=O)c2ccc3ncccc3c2)C1 (stereo unspecified) | inconclusive: 10.4 µM [inhibitor, single point] |  |
| Cc1cccc(C)c1OCC(N)C(C)C (stereo unspecified) |  | inactive: 34.6% |
| N#CC1=C2N=C(N)c3ccccc3N2C2=C(C(=O)CCC2)C1c1ccc(Cl)cc1 (stereo unspecified) |  | inactive: 6.17% |
| COc1ccccc1CCNC(=O)C(=O)NCCC1CCCCN1S(=O)(=O)c1ccccc1 (stereo unspecified) |  | inactive: 82.2% |
| Cc1nc2ccccc2c(=O)n1NC(=O)c1cncc(Br)c1 | inconclusive: 18.5 µM [inhibitor, single point] |  |
| O=C(CCNS(=O)(=O)c1cccc2nsnc12)NC1CCCc2ccccc21 (stereo unspecified) | inconclusive: 2.94 µM [inhibitor, full curve] |  |
| COC(=O)[C@@]12CCCCN1[C@H](c1ccc(-c3ccccc3)cc1)[C@@H]1C(=O)N(C)C(=O)[C@@H]12 | inconclusive: 18.5 µM [inhibitor, single point] |  |
| CSc1ccccc1NC(=O)N1CCCC(C(=O)c2ccc3c(c2)OCO3)C1 (stereo unspecified) | inconclusive: 5.86 µM [inhibitor, partial curve] |  |
| O=C(CN1CCN(C(=O)c2ccccc2F)CC1)Nc1ccc(Br)cc1 | inconclusive: 4.15 µM [inhibitor, full curve] |  |
| Cc1nn(CCC(N)=O)c2nc(-c3cccs3)cc(C(F)(F)F)c12 | inconclusive: 13.1 µM [inhibitor, partial curve, poor fit] |  |
| Cc1ccc(-n2c(Cc3cccn3C)nnc2SCC(=O)N2CCN(c3ccccc3)CC2)cc1 |  | inactive: -16.1% |
| CCCC1=C(C(=O)OCC)C(/C=C/c2ccccc2)n2ncnc2N1 (stereo unspecified) | inconclusive: 16.5 µM [inhibitor, partial curve, poor fit] |  |
| COc1cccc(CNC(=O)C2CCCN(S(=O)(=O)c3c(C)noc3/C=C/N(C)C)C2)c1 (stereo unspecified) | inconclusive: 18.5 µM [inhibitor, single point] |  |
| COc1ccc(C(CCN(Cc2ccc(OC)c(OC)c2)C(C)=O)c2ccccc2)cc1 (stereo unspecified) | inconclusive: 16.5 µM [inhibitor, single point] |  |
| Cc1[nH]c2ccccc2c1C(=O)C(=O)N1CCN(c2cccc(Cl)c2)CC1 | inconclusive: 18.5 µM [inhibitor, single point] |  |

A different layout for part of the listing above:
Structure (SMILES)	Potency	activity change, negative = inhibition
CCCC1=C(C(=O)OCC)C(/C=C/c2ccccc2)n2ncnc2N1 (stereo unspecified)	inconclusive: 16.5 µM [inhibitor, partial curve, poor fit]	
COc1cccc(CNC(=O)C2CCCN(S(=O)(=O)c3c(C)noc3/C=C/N(C)C)C2)c1 (stereo unspecified)	inconclusive: 18.5 µM [inhibitor, single point]	
COc1ccc(C(CCN(Cc2ccc(OC)c(OC)c2)C(C)=O)c2ccccc2)cc1 (stereo unspecified)	inconclusive: 16.5 µM [inhibitor, single point]	
